Reference: PMC10618235
These are yes or no findings as the source states them, for the method shown. In cells and extracts the contact can be indirect. A yes stands for co-enrichment or nearness to the bait. Other partners may have been found.

Biological target: T1, FBXL6 pulled down with an anti-FBXL6 antibody in HCC cells (UniProt Q8N531)
T1 sequence: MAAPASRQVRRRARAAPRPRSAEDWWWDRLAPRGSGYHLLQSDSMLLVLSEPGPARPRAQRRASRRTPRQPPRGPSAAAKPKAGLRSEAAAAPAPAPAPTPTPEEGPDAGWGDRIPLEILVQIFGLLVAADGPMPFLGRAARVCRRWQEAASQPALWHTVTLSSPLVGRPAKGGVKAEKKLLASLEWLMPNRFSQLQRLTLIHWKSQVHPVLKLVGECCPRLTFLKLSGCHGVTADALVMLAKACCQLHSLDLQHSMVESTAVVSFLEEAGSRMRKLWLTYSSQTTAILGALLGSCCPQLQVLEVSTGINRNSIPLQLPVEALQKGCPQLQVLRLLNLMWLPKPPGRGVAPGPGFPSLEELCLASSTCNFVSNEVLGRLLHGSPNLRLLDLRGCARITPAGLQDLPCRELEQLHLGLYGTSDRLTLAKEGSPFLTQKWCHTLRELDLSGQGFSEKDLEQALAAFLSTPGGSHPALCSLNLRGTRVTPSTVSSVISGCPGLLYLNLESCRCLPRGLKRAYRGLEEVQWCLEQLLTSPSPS
Assay: affinity purification with mass spectrometry; pulldown with an anti-FBXL6 antibody in HCC cells; 180 candidate interacting proteins

binding: binds
B1: TKT (transketolase) found in the anti-FBXL6 pulldown from HCC cells (protein, UniProt P29401 1-623)
chain: MESYHKPDQQKLQALKDTANRLRISSIQATTAAGSGHPTSCCSAAEIMAVLFFHTMRYKSQDPRNPHNDRFVLSKGHAAPILYAVWAEAGFLAEAELLNLRKISSDLDGHPVPKQAFTDVATGSLGQGLGAACGMAYTGKYFDKASYRVYCLLGDGELSEGSVWEAMAFASIYKLDNLVAILDINRLGQSDPAPLQHQMDIYQKRCEAFGWHAIIVDGHSVEELCKAFGQAKHQPTAIIAKTFKGRGITGVEDKESWHGKPLPKNMAEQIIQEIYSQIQSKKKILATPPQEDAPSVDIANIRMPSLPSYKVGDKIATRKAYGQALAKLGHASDRIIALDGDTKNSTFSEIFKKEHPDRFIECYIAEQNMVSIAVGCATRNRTVPFCSTFAAFFTRAFDQIRMAAISESNINLCGSHCGVSIGEDGPSQMALEDLAMFRSVPTSTVFYPSDGVATEKAVELAANTKGICFIRTSRPENAIIYNNNEDFQVGQAKVVLKSKDDQVTVIGAGVTLHEALAAAELLKKEKINIRVLDPFTIKPLDRKLILDSARATKGRILTVEDHYYEGGIGEAVSSAVVGEPGITVTHLAVNRVPRSGKPAELLKMFGIDRDAIAQAVRGLITKA
